# Some of the results follow.
# B1: R2-fiber (Pseudomonas aeruginosa), Q9S576 (protein)
# chain: HHHHHHKVAKDLVVSLAYQVRTEDGVLVDESPVSAPLDYLHGHGSLISGLETALEGHEVGDKFDVAVGANDAYGQYDENLVQRVPKDVFMGVDELQVGMRFLAETDQGPVPVEITAVEDDHVVVDGNHMLAGQNLKFNVEVVAIREATEEELAHGHVHGAHDHHHDHDHDGCCGGHGHDHGHEHGGEGCCGGKGNGGCGCHENLYFQGVTAGMALAATDIPGLDASKLVSGVLAEQRLPVFARGLATAVSNSSDPNTATVPLMLTNHANGPVAGRYFYIQSMFYPDQNGNASQIATSYNATSEMYVRVSYAANPSIREWLPWQRCDIGGSFTKEADGELPGGVNLDSMVTSGWWSQSFTAQAASGANYPIVRAGLLHVYAASSNFIYQTYQAYDGESFYFRCRHSNTWFPWRRMWHGGDFNPSDYLLKSGFYWNALPGKPATFPPSAHNHDVGQLTSGILPLARGGVGSNTAAGARSTIGAGVPATASLGASGWWRDNDTGLIRQWGQVTCPADADASITFPIPFPTLCLGGYANQTSAFHPGTDASTGFRGATTTTAVIRNGYFAQAVLSWEAFGR
# Legend:
# Assay in all cases: glycan array binding signal (z-score within array); higher = stronger binding
# Settings in all cases: glycan notation: IUPAC condensed, linker removed
# [1] = biological target: Gal(b1-4)GlcNAc(b1-3)Gal(b1-4)GlcNAc(b1-2)Man(a1-3)[Gal(b1-4)GlcNAc(b1-3)Gal(b1-4)GlcNAc(b1-2)Man(a1-6)]Man(b1-4)GlcNAc(b1-4)[Fuc(a1-6)]GlcNAc
# Procedure, shortened: (§1)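 Negative Z-scores can be read as non-binding. The Z-score is calculated within each array and then averaged across arrays of one protein sequence at different concentrations or buffers and across linkers. Arrays, 3228 in all, were curated from the Consortium for Functional Glycomics database and kept only where the protein sequence was available.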
# [2] = biological target: Gal(b1-4)GlcNAc(b1-3)Gal(b1-4)GlcNAc(b1-2)[Gal(b1-4)GlcNAc(b1-3)Gal(b1-4)GlcNAc(b1-6)]Man(a1-6)[Gal(b1-4)GlcNAc(b1-3)Gal(b1-4)GlcNAc(b1-2)Man(a1-3)]Man(b1-4)GlcNAc(b1-4)GlcNAc
# Procedure, shortened: as §1
# [3] = biological target: Gal(b1-4)GlcNAc(b1-3)Gal(b1-4)GlcNAc(b1-2)[Gal(b1-4)GlcNAc(b1-3)Gal(b1-4)GlcNAc(b1-6)]Man(a1-6)[Gal(b1-4)GlcNAc(b1-3)Gal(b1-4)GlcNAc(b1-2)Man(a1-3)]Man(b1-4)GlcNAc(b1-4)[Fuc(a1-6)]GlcNAc
# Procedure, shortened: as §1
# [4] = biological target: Gal(b1-4)GlcNAc(b1-3)Gal(b1-4)GlcNAc(b1-3)Gal(b1-4)GlcNAc
# Procedure, shortened: as §1
# [5] = biological target: Gal(b1-4)GlcNAc(b1-3)Gal(b1-4)GlcNAc(b1-3)Gal(b1-4)GlcNAc(b1-2)Man(a1-3)[Gal(b1-4)GlcNAc(b1-3)Gal(b1-4)GlcNAc(b1-3)Gal(b1-4)GlcNAc(b1-2)Man(a1-6)]Man(b1-4)GlcNAc(b1-4)GlcNAc
# Procedure, shortened: as §1
# [6] = biological target: Gal(b1-4)GlcNAc(b1-3)Gal(b1-4)GlcNAc(b1-3)Gal(b1-4)GlcNAc(b1-2)Man(a1-3)[Gal(b1-4)GlcNAc(b1-3)Gal(b1-4)GlcNAc(b1-3)Gal(b1-4)GlcNAc(b1-2)Man(a1-6)]Man(b1-4)GlcNAc(b1-4)[Fuc(a1-6)]GlcNAc
# Procedure, shortened: as §1
# [7] = biological target: Gal(b1-4)GlcNAc(b1-3)Gal(b1-4)GlcNAc(b1-3)Gal(b1-4)GlcNAc(b1-2)[Gal(b1-4)GlcNAc(b1-3)Gal(b1-4)GlcNAc(b1-3)Gal(b1-4)GlcNAc(b1-6)]Man(a1-6)[Gal(b1-4)GlcNAc(b1-3)Gal(b1-4)GlcNAc(b1-3)Gal(b1-4)GlcNAc(b1-2)Man(a1-3)]Man(b1-4)GlcNAc(b1-4)[Fuc(a1-6)]GlcNAc
# Procedure, shortened: as §1
# [8] = biological target: Gal(b1-4)GlcNAc(b1-3)Gal(b1-4)GlcNAc(b1-3)Gal(b1-4)GlcNAc(b1-3)Gal(b1-4)GlcNAc(b1-2)Man(a1-3)[Gal(b1-4)GlcNAc(b1-3)Gal(b1-4)GlcNAc(b1-3)Gal(b1-4)GlcNAc(b1-3)Gal(b1-4)GlcNAc(b1-2)Man(a1-6)]Man(b1-4)GlcNAc(b1-4)GlcNAc
# Procedure, shortened: as §1
# [9] = biological target: Gal(b1-4)GlcNAc(b1-3)Gal(b1-4)GlcNAc(b1-3)Gal(b1-4)GlcNAc(b1-3)Gal(b1-4)GlcNAc(b1-2)Man(a1-3)[Gal(b1-4)GlcNAc(b1-3)Gal(b1-4)GlcNAc(b1-3)Gal(b1-4)GlcNAc(b1-3)Gal(b1-4)GlcNAc(b1-2)Man(a1-6)]Man(b1-4)GlcNAc(b1-4)[Fuc(a1-6)]GlcNAc
# Procedure, shortened: as §1
# [10] = biological target: Gal(b1-4)GlcNAc(b1-3)Gal(b1-4)GlcNAc(b1-3)Gal(b1-4)GlcNAc(b1-3)Gal(b1-4)GlcNAc(b1-2)[Gal(b1-4)GlcNAc(b1-3)Gal(b1-4)GlcNAc(b1-3)Gal(b1-4)GlcNAc(b1-3)Gal(b1-4)GlcNAc(b1-6)]Man(a1-6)[Gal(b1-4)GlcNAc(b1-3)Gal(b1-4)GlcNAc(b1-3)Gal(b1-4)GlcNAc(b1-3)Gal(b1-4)GlcNAc(b1-2)Man(a1-3)]Man(b1-4)GlcNAc(b1-4)[Fuc(a1-6)]GlcNAc
# Procedure, shortened: as §1
# [11] = biological target: Gal(b1-4)GlcNAc(b1-3)Gal(b1-4)GlcNAc(b1-3)Gal(b1-4)GlcNAc(b1-3)Gal(b1-4)GlcNAc(b1-3)Gal(b1-4)GlcNAc(b1-2)Man(a1-3)[Gal(b1-4)GlcNAc(b1-3)Gal(b1-4)GlcNAc(b1-3)Gal(b1-4)GlcNAc(b1-3)Gal(b1-4)GlcNAc(b1-3)Gal(b1-4)GlcNAc(b1-2)Man(a1-6)]Man(b1-4)GlcNAc(b1-4)GlcNAc
# Procedure, shortened: as §1
# [12] = biological target: Gal(b1-4)GlcNAc(b1-3)Gal(b1-4)GlcNAc(b1-3)Gal(b1-4)GlcNAc(b1-3)Gal(b1-4)GlcNAc(b1-3)Gal(b1-4)GlcNAc(b1-2)Man(a1-3)[Gal(b1-4)GlcNAc(b1-3)Gal(b1-4)GlcNAc(b1-3)Gal(b1-4)GlcNAc(b1-3)Gal(b1-4)GlcNAc(b1-3)Gal(b1-4)GlcNAc(b1-2)Man(a1-6)]Man(b1-4)GlcNAc(b1-4)[Fuc(a1-6)]GlcNAc
# Procedure, shortened: as §1
# [13] = biological target: Gal(b1-4)GlcNAc(b1-3)Gal(b1-4)GlcNAc(b1-3)Gal(b1-4)GlcNAc(b1-3)Gal(b1-4)GlcNAc(b1-3)Gal(b1-4)GlcNAc(b1-2)[Gal(b1-4)GlcNAc(b1-3)Gal(b1-4)GlcNAc(b1-3)Gal(b1-4)GlcNAc(b1-3)Gal(b1-4)GlcNAc(b1-3)Gal(b1-4)GlcNAc(b1-6)]Man(a1-6)[Gal(b1-4)GlcNAc(b1-3)Gal(b1-4)GlcNAc(b1-3)Gal(b1-4)GlcNAc(b1-3)Gal(b1-4)GlcNAc(b1-3)Gal(b1-4)GlcNAc(b1-2)Man(a1-3)]Man(b1-4)GlcNAc(b1-4)[Fuc(a1-6)]GlcNAc
# Procedure, shortened: as §1
# [14] = biological target: Gal(b1-4)GlcNAc(b1-3)Gal(b1-4)GlcNAc(b1-3)Gal(b1-4)GlcNAc(b1-3)Gal(b1-4)GlcNAc(b1-3)Gal(b1-4)GlcNAc(b1-3)Gal(b1-4)GlcNAc(b1-2)Man(a1-3)[Gal(b1-4)GlcNAc(b1-3)Gal(b1-4)GlcNAc(b1-3)Gal(b1-4)GlcNAc(b1-3)Gal(b1-4)GlcNAc(b1-3)Gal(b1-4)GlcNAc(b1-3)Gal(b1-4)GlcNAc(b1-2)Man(a1-6)]Man(b1-4)GlcNAc(b1-4)GlcNAc
# Procedure, shortened: as §1
# [15] = biological target: Gal(b1-4)GlcNAc(b1-3)Gal(b1-4)GlcNAc(b1-3)GalNAc
# Procedure, shortened: as §1
# [16] = biological target: Gal(b1-4)GlcNAc(b1-3)Gal(b1-4)GlcNAc(b1-3)[Gal(b1-4)GlcNAc(b1-3)Gal(b1-4)GlcNAc(b1-6)]GalNAc
# Procedure, shortened: as §1
# [17] = biological target: Gal(b1-4)GlcNAc(b1-3)Gal(b1-4)GlcNAc(b1-6)[Gal(b1-3)]GalNAc
# Procedure, shortened: as §1
# [18] = biological target: Gal(b1-4)GlcNAc(b1-3)Gal(b1-4)[Fuc(a1-3)]GlcNAc(b1-3)Gal(b1-4)[Fuc(a1-3)]GlcNAc
# Procedure, shortened: as §1
# [19] = biological target: Gal(b1-4)GlcNAc(b1-3)GalNAc
# Procedure, shortened: as §1
# [20] = biological target: Gal(b1-4)GlcNAc(b1-3)[Fuc(a1-3)GlcNAc(b1-6)]Gal(b1-4)Glc
# Procedure, shortened: as §1
# [21] = biological target: Gal(b1-4)GlcNAc(b1-3)[Gal(b1-4)GlcNAc(b1-6)]Gal(b1-4)GlcNAc
# Procedure, shortened: as §1
# [22] = biological target: Gal(b1-4)GlcNAc(b1-3)[GlcNAc(b1-6)]Gal(b1-4)GlcNAc
# Procedure, shortened: as §1
# [23] = biological target: Gal(b1-4)GlcNAc(b1-6)Gal(b1-4)GlcNAc
# Procedure, shortened: as §1
# [24] = biological target: Gal(b1-4)GlcNAc(b1-6)GalNAc
# Procedure, shortened: as §1
# [25] = biological target: Gal(b1-4)GlcNAc(b1-6)[Gal(b1-3)]GalNAc
# Procedure, shortened: as §1
# [26] = biological target: Gal(b1-4)GlcNAc(b1-6)[Gal(b1-4)GlcNAc(b1-3)]GalNAc
# Procedure, shortened: as §1
# Gal(b1-4)GlcNAc6P = biological target: Gal(b1-4)GlcNAc6P
# Procedure, shortened: as §1
# Gal(b1-6)Gal = biological target: Gal(b1-6)Gal
# Procedure, shortened: as §1
# Gal3S(b1-3)GalNAc = biological target: Gal3S(b1-3)GalNAc
# Procedure, shortened: as §1
# Gal3S(b1-3)GlcNAc = biological target: Gal3S(b1-3)GlcNAc
# Procedure, shortened: as §1
binder,measurement,setting,value
B1,glycan array binding signal (z-score),[1],1.95
same,glycan array binding signal (z-score),[2],2.06
same,glycan array binding signal (z-score),[3],1.1
same,glycan array binding signal (z-score),[4],0.018
same,glycan array binding signal (z-score),[5],0.715
same,glycan array binding signal (z-score),[6],1.1
same,glycan array binding signal (z-score),[7],0.207
same,glycan array binding signal (z-score),[8],1.13
same,glycan array binding signal (z-score),[9],0.233
same,glycan array binding signal (z-score),[10],1.16
same,glycan array binding signal (z-score),[11],-0.158
same,glycan array binding signal (z-score),[12],1.1
same,glycan array binding signal (z-score),[13],0.259
same,glycan array binding signal (z-score),[14],0.964
same,glycan array binding signal (z-score),[15],-0.045
same,glycan array binding signal (z-score),[16],-0.271
same,glycan array binding signal (z-score),[17],-0.437
same,glycan array binding signal (z-score),[18],0.383
same,glycan array binding signal (z-score),[19],-1.43
same,glycan array binding signal (z-score),[20],0.125
same,glycan array binding signal (z-score),[21],2.03
same,glycan array binding signal (z-score),[22],-0.649
same,glycan array binding signal (z-score),[23],-0.238
same,glycan array binding signal (z-score),[24],0.918
same,glycan array binding signal (z-score),[25],-0.31
same,glycan array binding signal (z-score),[26],0.867
same,glycan array binding signal (z-score),Gal(b1-4)GlcNAc6P,-0.835
same,glycan array binding signal (z-score),Gal(b1-6)Gal,0.281
same,glycan array binding signal (z-score),Gal3S(b1-3)GalNAc,0.022
same,glycan array binding signal (z-score),Gal3S(b1-3)GlcNAc,-0.69

# Part of the list above in another layout:
binder	measurement	setting	value
B1	glycan array binding signal (z-score)	[11]	-0.158
same	glycan array binding signal (z-score)	[12]	1.1

# From the supplement of paper PMC8728848
